According to PubChem BioAssay AID445 (National Center for Advancing Translational Sciences (NCATS), 2006):
Values joined by “and” are separate entries in the source; they are usually repeats but may differ in a detail not shown here. Equal entries are not always repeated. The list shows a part of the results. Further columns of the screen follow, without active or inactive calls. Most of these compounds were active or inconclusive in the main read-out, so they are no random draw. Potencies come from curve fits of mixed quality, noted in brackets.

Experiment: IkB Signaling
Details: ABC-DLBCL IkBa-CBG/CBR dual luciferase ratio (green luciferase fused to IkBa over red control in OCI-Ly3 lymphoma cells), 4 h
Outline: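 Luminescence ratio of IκBα-fused green versus native red beetle luciferase in OCI-Ly3 cells, 4 h post-doxycycline with compound; red signal alone, scaled from basal (0%) to zero light (-100%), flagged nonspecific or cytotoxic effects.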

[1] = measured here: control luc red channel unless noted

## CN1C(=O)c2[nH]nc(-c3ccc(F)cc3)c2C1c1cccc(O)c1 (stereo not given)
[1]
  AC50: 39.8 µM [falling, single point]

## CSc1ccccc1NC(=O)Nc1ccccc1
[1]
  AC50: 10 µM [falling, partial curve]

## COc1cc(NC(=O)CN(c2cc(C)cc(C)c2)S(=O)(=O)c2c(C)[nH]c(=O)[nH]c2=O)cc(OC)c1
[1]
  AC50: 31.6 µM [falling, partial curve]

## Cc1ccc(-n2c(=O)c3ccc(C(=O)NCc4ccccc4Cl)cc3n(CC(=O)Nc3ccc(C)cc3C)c2=O)cc1
[1]
  AC50: 7.94 µM [falling, partial curve]

## Cc1cc(C)cc(C(=O)n2nc(C)c(S(=O)(=O)N3CCOCC3)c2C)c1
[1]
  AC50: 12.6 µM [falling, partial curve]

## Cc1ccc(Nc2cc(C)nc3nncn23)c(C)c1
[1]
  AC50: 7.94 µM [falling, single point]

## CCCC1(C(=O)O)NC(c2cccc(OC)c2O)C2C(=O)N(c3ccccc3)C(=O)C21 (stereo not given)
[1]
  AC50: 12.6 µM [falling, partial curve]

## CCOc1ccc(-c2nc3ccccc3c(=O)o2)cc1
[1]
  AC50: 10 µM [falling, partial curve]

## COC(=O)c1c(C)[nH]c(C)c1C(=O)c1ccccc1Cc1ccccc1
[1]
  AC50: 31.6 µM [falling, partial curve]

## COc1cccc(CNC(=O)Cn2nc(N3CCN(c4ccccc4OC)CC3)ccc2=O)c1
[1]
  AC50: 1.26 µM [falling, full curve, poor fit]

## O=C(Nc1ccc(F)cc1)N(Cc1ccco1)Cc1cc2cc3c(cc2[nH]c1=O)OCO3
Measured here: IkB-luc green channel
  AC50: 7.94 µM [falling, partial curve]
Measured here: control luc red channel
  AC50: 7.94 µM [falling, partial curve]

## CCCCOc1ccc(C2C(=O)N(C3CCCCC3)CC(=O)N2CCCC)cc1 (stereo not given)
[1]
  AC50: 12.6 µM [falling, partial curve]

## COc1cc(NS(=O)(=O)c2ccc(C)cc2C)cc(OC)c1OC
[1]
  AC50: 31.6 µM [falling, partial curve]

## COc1ccccc1CN(Cc1cc2cc(C)cc(C)c2[nH]c1=O)Cc1nnnn1CC1CCCO1 (stereo not given)
[1]
  AC50: 31.6 µM [falling, partial curve]

## CCCc1[nH]nc2c1C(C1CC=CCC1)C(C#N)=C(N)O2 (stereo not given)
[1]
  AC50: 7.94 µM [falling, full curve, poor fit]

## Cc1ccc(OCCOCCn2c(-c3ccc(Cl)cc3)nc3ccccc3c2=O)cc1
[1]
  AC50: 7.94 µM [falling, full curve, poor fit]

## CCCCOc1ccc(-c2nnn(CC(=O)Nc3ncc(CC(=O)OCC)s3)n2)cc1
[1]
  AC50: 20 µM [falling, partial curve]

## CCOc1ccc(CN2CCc3nc(N4CCN(c5ccccn5)CC4)ncc3C2)cc1OC
[1]
  AC50: 25.1 µM [falling, partial curve]

## COc1ccc(-c2coc3c2c(C)cc2oc(=O)c(CC(=O)O)c(C)c23)cc1
[1]
  AC50: 31.6 µM [falling, partial curve]

## Cc1cc(C)c(S(=O)(=O)Nc2ccc3oc4c(c3c2)C(=O)CC(C)(C)C4)cc1C
[1]
  AC50: 7.94 µM [falling, partial curve]

## COc1cc(OC)c(NC(=O)c2cn(C3CCCC3)c(=O)c3c2c2ccccc2n3C)cc1Cl
[1]
  AC50: 39.8 µM [falling, single point]

## COc1cc2c(cc1OC)C(COc1ccc(F)cc1)N(C(=O)c1cccc(F)c1)CC2 (stereo not given)
[1]
  AC50: 31.6 µM [falling, partial curve]

## Cc1nc2nc(SCC(=O)Nc3ccccc3Cl)nn2c(C)c1Cc1ccccc1
[1]
  AC50: 39.8 µM [falling, single point]

## O=C(c1ccc(Br)cc1)N(Cc1cccs1)c1ccc(F)cc1
[1]
  AC50: 25.1 µM [falling, single point]

## CN1CCN(C(=O)Cn2ncc3c4ccccc4n(Cc4ccc(F)cc4)c3c2=O)CC1
[1]
  AC50: 15.8 µM [falling, single point]

## CCOCCn1ccc2c(OCC(=O)Nc3cccc([N+](=O)[O-])c3)cccc2c1=O
[1]
  AC50: 2 µM [rising, full curve]

## COc1cccc(C(=O)Nc2ccccc2OCc2cc(=O)n3ccccc3n2)c1
[1]
  AC50: 10 µM [falling, partial curve]

## Cc1cccn2c(=O)c(/C=C(\C#N)c3nc4ccccc4s3)c(Oc3ccc(F)cc3)nc12
[1]
  AC50: 39.8 µM [falling, single point]

## Cc1cc(N(CCO)Cc2ccccc2)n2nc(-c3ccc(C(C)(C)C)cc3)nc2n1
[1]
  AC50: 31.6 µM [falling, single point]

## Cc1cc(C(=O)NCCC2=CCCCC2)c(C)o1
[1]
  AC50: 39.8 µM [rising, single point] [measured here: IkB-luc green channel]

## Cc1ccc(C)c(N2CCN(C(=O)c3cc(S(=O)(=O)N4CCOCC4)ccc3F)CC2)c1
[1]
  AC50: 15.8 µM [falling, partial curve]

## CCc1ccc(Nc2nnc(-n3nc(C)cc3C)c3ccccc23)cc1
[1]
  AC50: 0.251 µM [rising, single point]

## Cc1cccc(NC(=O)CNc2cc(C)ccc2C)c1
[1]
  AC50: 15.8 µM [falling, partial curve]

## Cc1ccccc1C(=O)NCCc1sc(-c2ccc(Cl)cc2)nc1C
[1]
  AC50: 1 µM [falling, full curve, poor fit]

## O=C1NC2(CCCc3ccccc32)C(=O)N1Cc1nnc(-c2ccccc2Br)o1 (stereo not given)
[1]
  AC50: 31.6 µM [falling, single point]

## COc1ccc(C2CC(=O)N(CC(=O)Nc3ccc(C)c(Cl)c3)c3ccccc3S2)cc1OC (stereo not given)
[1]
  AC50: 0.158 µM [falling, full curve]

## COc1ccc(-c2nc(SCC(=O)NC3CCCC3)c(-c3ccc(C)cc3)[nH]2)cc1OC
[1]
  AC50: 15.8 µM [falling, partial curve]

## COc1ccc(N(Cc2cccs2)C(=O)Nc2cccc(Cl)c2)cc1
[1]
  AC50: 31.6 µM [falling, partial curve, poor fit]

## CCOC(=O)C1CCCN(S(=O)(=O)c2ccc3c(c2)oc(=O)n3C)C1 (stereo not given)
[1]
  AC50: 3.98 µM [falling, partial curve, poor fit]

## Cc1noc(C)c1CSc1nc2ccccc2nc1NS(=O)(=O)c1ccc(Cl)cc1
[1]
  AC50: 15.8 µM [falling, partial curve]

## COc1ccc(-c2cn3c(n2)sc2cc(C(=O)NCc4cccc(F)c4)ccc23)cc1
[1]
  AC50: 25.1 µM [falling, single point]

## CCCc1cnc2c(c1SCc1cccc(F)c1)c(=O)n(C)c(=O)n2C
[1]
  AC50: 39.8 µM [falling, partial curve]

## CCCc1noc(-c2ccc(NCc3ccc(C)cc3)c([N+](=O)[O-])c2)n1
[1]
  AC50: 0.316 µM [rising, full curve]

## Cc1oc2c(cc(NS(=O)(=O)c3ccc(Cl)cc3)c3ccccc32)c1C(=O)OCc1ccccc1
[1]
  AC50: 20 µM [falling, single point]

## COc1ccc(C2C=C(c3ccc(Br)s3)Nc3ncnn32)cc1OC (stereo not given)
[1]
  AC50: 15.8 µM [falling, partial curve]

## O=S(=O)(Nc1cccc(-c2cn3ccsc3n2)c1)c1ccc(F)cc1
[1]
  AC50: 31.6 µM [falling, partial curve]

## CCc1cccc(C)c1Nc1c(-c2cccs2)nc2nc(C)cc(C)n12
[1]
  AC50: 39.8 µM [falling, single point]

## O=C(CSc1nc2ccccc2nc1Cc1ccccc1F)Nc1cccc(C(F)(F)F)c1
[1]
  AC50: 5.01 µM [falling, full curve]

## CCC(=O)Nc1ccc(CC)cc1-c1nc2ccccc2n(CC(=O)Nc2ccccc2C)c1=O
[1]
  AC50: 12.6 µM [falling, partial curve]

## COc1ccc(-c2onc(C)c2C)cc1S(=O)(=O)Nc1cc(Cl)ccc1C
[1]
  AC50: 0.158 µM [rising, full curve]

## COc1ccc(-c2cc3nc(C)c(CCC(=O)N4CCN(c5ccccc5F)CC4)c(C)n3n2)c(OC)c1
[1]
  AC50: 0.794 µM [falling, full curve]

## COC(=O)C1=C(C)NC(=O)NC1c1cn(-c2ccccc2)nc1-c1cccs1 (stereo not given)
[1]
  AC50: 20 µM [falling, partial curve]

## COc1ccccc1-c1cc(C(F)(F)F)nc(S(=O)(=O)CCCC(=O)Nc2cc(C)on2)n1
[1]
  AC50: 1.58 µM [falling, full curve, poor fit]

## COc1cc2c(cc1OC)C(COc1ccc(F)cc1)N(C(=O)Cc1ccccc1)CC2 (stereo not given)
[1]
  AC50: 39.8 µM [falling, single point]

## CCOc1ccccc1C(=O)N1CC(=O)Nc2ccc(C)cc2C1c1ccccc1 (stereo not given)
[1]
  AC50: 31.6 µM [falling, single point]

## Cc1nn2c(=O)cc(COc3ccc(/C=C(\C#N)C(=O)Nc4ccccc4)cc3Cl)nc2s1
[1]
  AC50: 7.94 µM [rising, partial curve]

## O=C(OCc1ccccc1Cl)c1ccc(-c2nnn(Cc3ccc(F)cc3)n2)cc1
[1]
  AC50: 3.16 µM [rising, full curve]

## Brc1ccc2c(c1)NC(c1cccnc1)=NC(c1ccccc1)=N2
[1]
  AC50: 3.16 µM [rising, partial curve]

## O=C(c1cccs1)N1CCC(c2ccccc2)C1 (stereo not given)
[1]
  AC50: 3.16 µM [falling, partial curve]

## CCOC(=O)CCNC(=O)Nc1ccc2nc(C)n(Cc3cccc(Cl)c3)c(=O)c2c1
[1]
  AC50: 31.6 µM [falling, single point]

## COc1cc(-c2noc(-c3ccccc3C(=O)NCc3ccco3)n2)cc(OC)c1OC
[1]
  AC50: 7.94 µM [falling, partial curve]

## COc1cccc2c1C(=O)c1c(O)c3c(c(O)c1C2=O)C[C@@](O)(C(C)=O)C[C@@H]3O[C@H]1C[C@H](N)[C@H](O)[C@H](C)O1
[1]
  AC50: 31.6 µM [falling, partial curve] and 501 nM [falling, full curve]

## COc1cc(-c2nc3oc4ccccc4c(=O)c3c(=O)n2Cc2ccco2)cc(OC)c1OC
[1]
  AC50: 6.31 µM [falling, partial curve]

## COC(=O)c1ccc(CN2C(=O)NC3(CCCCC3C)C2=O)o1 (stereo not given)
[1]
  AC50: 3.16 µM [falling, partial curve]

## O=S(=O)(NCC(c1ccccc1)N1CCc2ccccc21)c1ccccc1 (stereo not given)
[1]
  AC50: 12.6 µM [falling, partial curve]

## O=c1c2ccccc2n(Cc2c(F)cccc2Cl)c(=O)n1Cc1ccccc1
[1]
  AC50: 6.31 µM [falling, full curve]

## CCn1c(=O)cc(OCC(=O)N2CCN(c3cccc(Cl)c3)CC2)c2ccccc21
[1]
  AC50: 12.6 µM [falling, partial curve]

## O=C(NCc1cccs1)C1CCN(c2ccc(S(=O)(=O)N3CCOCC3)cc2Cl)CC1
[1]
  AC50: 25.1 µM [falling, single point]

## COc1cc(C(=O)N2CCC(c3nc4ccccc4s3)CC2)cc(OC)c1OC
[1]
  AC50: 39.8 µM [falling, single point]

## CCc1ccc(-c2cc(C)no2)cc1S(=O)(=O)Nc1cc(OC)c(OC)c(OC)c1
[1]
  AC50: 39.8 µM [falling, single point]

## Cc1ccc(S(=O)(=O)N2CCN(Cc3ccc4c(c3)OCO4)CC2)cc1
[1]
  AC50: 10 µM [falling, partial curve]

## COc1ccc(C2=C(C)C(=NCc3ccc(OC(C)C)cc3)NS2(=O)=O)cc1
[1]
  AC50: 15.8 µM [falling, partial curve]

## Cc1ccc2c(c1)sc1nc(=O)n(-c3ccc(Cl)c(Cl)c3)c(=O)n12
[1]
  AC50: 20 µM [falling, single point]

## Cc1cccc(N2CCN(c3ccc(NC(=O)c4ccccc4)cc3C(=O)O)CC2C)c1 (stereo not given)
[1]
  AC50: 1.26 µM [rising, full curve]

## COc1ccc(-c2noc(CSc3nc(N)cc(=O)[nH]3)n2)cc1
[1]
  AC50: 1.58 µM [rising, partial curve]

## N#Cc1ccc(NC(=O)N2CCC(c3nc4c(nnn4Cc4cccc(Cl)c4)c(=O)[nH]3)CC2)cc1
[1]
  AC50: 25.1 µM [falling, partial curve]

## COc1ccccc1C(=O)Nc1onc2c1CCCC2
[1]
  AC50: 3.98 µM [rising, full curve]

## CCOc1ccc(C(=O)c2cn(CC(=O)Nc3ccc(F)c(F)c3)c3cc4c(cc3c2=O)OCCO4)cc1
[1]
  AC50: 2 µM [falling, full curve]

## COc1cccc(NC(=O)CCc2nc(-c3cccs3)no2)c1
[1]
  AC50: 39.8 µM [falling, single point]
